From US5800820A, “Methods and compositions for treatment of angiogenic diseases” (Repligen Corporation, priority 1995, dated 1998)
Part of at least one peptide drawing is inferred or uncertain, most often the ends. Ends that are not written are not given here.

Tests used:
angiogenesis on the CAM = experiment: Chicken chorioallantoic membrane (CAM) assay; assay type: in vivo; details: discs containing several concentrations; FIG. 2
Experimental: Chicken Chorioallantoic Membrane (CAM) Assay. Fertile eggs were incubated in a stationary position for 3 days at 37° C. and 70-80% relative humidity. During this time, the embryo rose to the upper surface of the egg contents. At the beginning of the 4th day, the eggs were cracked without inversion and carefully deposited into sterile plastic petri dishes such that the embryo remained on the upper surface. The shell-free eggs were incubated for an additional 72 hours at 37° C., under an atmosphere containing 2.5-3.5% CO2 after which the growing embryos developed a recognizable CAM. Discs, made by mixing test samples with 1% (w/v) methylcellulose, were dried and placed on the CAM between major veins and approximately 0.5 cm from the embryo. Following another 48 hour incubation at 37° C. (2.5-3.5% CO2), the samples were scored for their ability to inhibit angiogenesis. Inhibition appears as an avascular zone surrounding the implant and can often include elbows formed by veins avoiding the disc and a reduced number of capillaries in the region of the implant.

[1] = system: heparin inhibition of thrombin; experiment: Thrombin assay of heparin binding (prevention of heparin inhibition); assay type: biochemical; details: C-13: even at ten times an effective level of rPF4
[2] = system: Con-A induced immunosuppression; experiment: Con-A induced immunosuppression in mice; assay type: in vivo; details: activity unaffected by heparin

## PLYKKIIKKLLES [C-13]
Angiogenesis on the CAM
  inhibition of angiogenesis on the CAM: potent angiostatic activity
[1]
  prevention of heparin inhibition of thrombin: unable to prevent the inhibition of thrombin
[2]
  prevention of Con-A induced immunosuppression: retains the ability to prevent Con-A induced immunosuppression
